Reference: US7083932B1, “Nucleic acid molecules encoding peptides having pronociceptive properties” (Euroscreen, s.a., priority 1995, dated 2006)
For at least one compound, name, drawing or mass did not settle the structure.

System: mice
Assay: antagonism of nociceptin-induced stimulation of horizontal locomotor activity
Assay type: in vivo
Details: increasing doses of antagonist

For `CN1CCc2cc(Cl)c(O)cc2[C@@H](c2ccccc2)C1` [SCH 23390], the “antagonism of nociceptin stimulation of locomotor activity” value was “effective in antagonizing”.
